Data as given in PubChem BioAssay AID1259405 (NCATS, 2018).
The whole screen tested about 50,000 reagents; shown is a part drawn at random. About 4,000 of all reagents (8%) were called active. 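Mouse siRNA library applied to hamster cells; one well for each siRNA.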 The numbers tell different reagents against one gene apart. No sequences are given here.

Test: 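Mouse-designed siRNAs used to find CHO productivity engineering targets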 (primary screen)
Cells: Chinese hamster CHO-K1 ovary cells with stable secreted eGFP expression
Reagents: single siRNA against mouse genes, 0.8 pmol siRNA per well (2 µl of 400 nM stock)
Time to read-out: 3 days
Measurement: 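Per-well intracellular GFP measured by laser scanning cytometry, plus viability from ATP luminescence, each relative to plate median of non-targeting control wells, in %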
Direction: GFP, % of control: higher = more GFP per well, higher productivity; viability (ATP), % of control: higher = more viable cells (more ATP)
Active means: 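Called active when intracellular GFP, relative to negative control, is at or above 120%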

Or8b41 #1: GFP, % of control = 75.2; viability (ATP), % of control = 75.2; outcome = inactive
Or8b41 #2: GFP, % of control = 92.3; viability (ATP), % of control = 81.9; outcome = inactive
Or8b41 #3: GFP, % of control = 74.2; viability (ATP), % of control = 1.42; outcome = inactive
Nsun6 #1: GFP, % of control = 68.1; viability (ATP), % of control = 70.2; outcome = inactive
Nsun6 #2: GFP, % of control = 87.5; viability (ATP), % of control = 84.2; outcome = inactive
Nsun6 #3: GFP, % of control = 60.3; viability (ATP), % of control = 66.7; outcome = inactive
Atoh8 #1: GFP, % of control = 61.9; viability (ATP), % of control = 81.2; outcome = inactive
Atoh8 #2: GFP, % of control = 58.6; viability (ATP), % of control = 87.6; outcome = inactive
Atoh8 #3: GFP, % of control = 99.3; viability (ATP), % of control = 108; outcome = inactive
Bcdin3d #1: GFP, % of control = 99.4; viability (ATP), % of control = 82.6; outcome = inactive
Bcdin3d #2: GFP, % of control = 69.3; viability (ATP), % of control = 50.5; outcome = inactive
Bcdin3d #3: GFP, % of control = 67.1; viability (ATP), % of control = 44.3; outcome = inactive
Gtf3c2 #1: GFP, % of control = 40.9; viability (ATP), % of control = 30.8; outcome = inactive
Gtf3c2 #2: GFP, % of control = 66.3; viability (ATP), % of control = 47.3; outcome = inactive
Gtf3c2 #3: GFP, % of control = 92.5; viability (ATP), % of control = 124; outcome = inactive
Tas2r124 #1: GFP, % of control = 56.3; viability (ATP), % of control = 71; outcome = inactive
Tas2r124 #2: GFP, % of control = 101; viability (ATP), % of control = 91; outcome = inactive
Tas2r124 #3: GFP, % of control = 83.1; viability (ATP), % of control = 78.8; outcome = inactive
Gdi2 #1: GFP, % of control = 59.3; viability (ATP), % of control = 74.7; outcome = inactive
Gdi2 #2: GFP, % of control = 77.9; viability (ATP), % of control = 95.2; outcome = inactive
Gdi2 #3: GFP, % of control = 73.1; viability (ATP), % of control = 92.8; outcome = inactive
Gdi2 #4: GFP, % of control = 12.5; viability (ATP), % of control = 21.5; outcome = inactive
Gdi2 #5: GFP, % of control = 29.4; viability (ATP), % of control = 35.3; outcome = inactive
Gdi2 #6: GFP, % of control = 145; viability (ATP), % of control = 94.4; outcome = active
Lrrn4 #1: GFP, % of control = 103; viability (ATP), % of control = 57.8; outcome = inactive
Lrrn4 #2: GFP, % of control = 80.1; viability (ATP), % of control = 67.1; outcome = inactive
Lrrn4 #3: GFP, % of control = 60; viability (ATP), % of control = 70.2; outcome = inactive
Cd79b #1: GFP, % of control = 76; viability (ATP), % of control = 96.5; outcome = inactive
Cd79b #2: GFP, % of control = 60.9; viability (ATP), % of control = 55.5; outcome = inactive
Cd79b #3: GFP, % of control = 65.3; viability (ATP), % of control = 83.1; outcome = inactive
Drc11l #1: GFP, % of control = 110; viability (ATP), % of control = 77; outcome = inactive
Drc11l #2: GFP, % of control = 58.6; viability (ATP), % of control = 66.1; outcome = inactive
Drc11l #3: GFP, % of control = 73.3; viability (ATP), % of control = 86.2; outcome = inactive
Gzmn #1: GFP, % of control = 96.1; viability (ATP), % of control = 62.2; outcome = inactive
Gzmn #2: GFP, % of control = 95.4; viability (ATP), % of control = 65.4; outcome = inactive
Gzmn #3: GFP, % of control = 69.7; viability (ATP), % of control = 56.9; outcome = inactive
Ppp1r3b #1: GFP, % of control = 99.5; viability (ATP), % of control = 104; outcome = inactive
Ppp1r3b #2: GFP, % of control = 93.5; viability (ATP), % of control = 89.3; outcome = inactive
Ppp1r3b #3: GFP, % of control = 54.5; viability (ATP), % of control = 65.1; outcome = inactive
Or10q1 #1: GFP, % of control = 25; viability (ATP), % of control = 19; outcome = inactive
Or10q1 #2: GFP, % of control = 70.8; viability (ATP), % of control = 92.7; outcome = inactive
Or10q1 #3: GFP, % of control = 181; viability (ATP), % of control = 81.5; outcome = active
Thoc6 #1: GFP, % of control = 64.8; viability (ATP), % of control = 64.1; outcome = inactive
Thoc6 #2: GFP, % of control = 23.1; viability (ATP), % of control = 79.6; outcome = inactive
Thoc6 #3: GFP, % of control = 121; viability (ATP), % of control = 52.9; outcome = active
Mycs #1: GFP, % of control = 137; viability (ATP), % of control = 70.5; outcome = active
Mycs #2: GFP, % of control = 72.6; viability (ATP), % of control = 78.9; outcome = inactive
Mycs #3: GFP, % of control = 70.6; viability (ATP), % of control = 83.5; outcome = inactive
Otx2 #1: GFP, % of control = 84.6; viability (ATP), % of control = 92.7; outcome = inactive
Otx2 #2: GFP, % of control = 77.5; viability (ATP), % of control = 90.9; outcome = inactive
Ndufa10 #1: GFP, % of control = 107; viability (ATP), % of control = 105; outcome = inactive
Ndufa10 #2: GFP, % of control = 79; viability (ATP), % of control = 73.7; outcome = inactive
Ndufa10 #3: GFP, % of control = 75.1; viability (ATP), % of control = 70.9; outcome = inactive

Not a retest: entries from further up.
Mycs #2: GFP, % of control = 72.6; viability (ATP), % of control = 78.9; outcome = inactive
Mycs #3: GFP, % of control = 70.6; viability (ATP), % of control = 83.5; outcome = inactive
Otx2 #1: GFP, % of control = 84.6; viability (ATP), % of control = 92.7; outcome = inactive
Otx2 #2: GFP, % of control = 77.5; viability (ATP), % of control = 90.9; outcome = inactive
